Measurements published in publication PMC7862700.
The entries are a selection whose mix differs from that of the whole data set. For part of these data: At the low end of the ranking the order means little. The list shows a part of the results. For part of these data: Construct or isoform of the protein are uncertain.

By UniProt entry, the sequences of proteins in these tests, tags left out. Where a name states a change or a piece, a line headed by the entry shows the natural chain unless it says otherwise.
UniProt Q00613: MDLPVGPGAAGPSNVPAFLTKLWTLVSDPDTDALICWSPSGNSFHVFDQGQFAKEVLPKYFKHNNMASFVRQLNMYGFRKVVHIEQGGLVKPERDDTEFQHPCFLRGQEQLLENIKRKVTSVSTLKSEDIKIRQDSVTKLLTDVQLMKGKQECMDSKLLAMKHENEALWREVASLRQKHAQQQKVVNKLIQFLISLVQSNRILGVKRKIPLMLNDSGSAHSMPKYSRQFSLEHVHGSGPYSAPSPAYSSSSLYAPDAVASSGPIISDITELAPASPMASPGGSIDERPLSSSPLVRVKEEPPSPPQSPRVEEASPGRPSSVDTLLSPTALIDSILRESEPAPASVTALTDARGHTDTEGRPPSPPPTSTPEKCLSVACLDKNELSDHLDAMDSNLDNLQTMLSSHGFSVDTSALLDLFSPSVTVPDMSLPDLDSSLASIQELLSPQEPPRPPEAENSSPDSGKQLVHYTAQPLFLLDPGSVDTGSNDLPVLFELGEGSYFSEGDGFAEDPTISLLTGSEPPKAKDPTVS

Experiments:
[1] = biological target: HSF1 (UniProt Q00613); test: DAPPL (digital affinity profiling via proximity ligation, sequencing); settings: 10 mM Tris-HCl pH 7.5, 50 mM NaCl, 1 mM DTT, 4% glycerol, room temperature, 30 min; GST-TFs on glutathione beads, 16-mer random dsDNA library, 0.1% …; high values mean tight binding; double strand, one strand shown; scale: fold enrichment (6-mer frequency, TF over GST control)
[2] = biological target: T1, ELF2 (UniProt Q15723); test: as above; settings: 10 mM Tris-HCl pH 7.5, 50 mM NaCl, 1 mM DTT, 4% glycerol, room temperature, 30 min; GST-TFs on glutathione beads, 16-mer random dsDNA library, 0.1% …; high values mean tight binding; double strand, one strand shown; scale: fold enrichment (6-mer frequency, TF over GST control)
T1 sequence: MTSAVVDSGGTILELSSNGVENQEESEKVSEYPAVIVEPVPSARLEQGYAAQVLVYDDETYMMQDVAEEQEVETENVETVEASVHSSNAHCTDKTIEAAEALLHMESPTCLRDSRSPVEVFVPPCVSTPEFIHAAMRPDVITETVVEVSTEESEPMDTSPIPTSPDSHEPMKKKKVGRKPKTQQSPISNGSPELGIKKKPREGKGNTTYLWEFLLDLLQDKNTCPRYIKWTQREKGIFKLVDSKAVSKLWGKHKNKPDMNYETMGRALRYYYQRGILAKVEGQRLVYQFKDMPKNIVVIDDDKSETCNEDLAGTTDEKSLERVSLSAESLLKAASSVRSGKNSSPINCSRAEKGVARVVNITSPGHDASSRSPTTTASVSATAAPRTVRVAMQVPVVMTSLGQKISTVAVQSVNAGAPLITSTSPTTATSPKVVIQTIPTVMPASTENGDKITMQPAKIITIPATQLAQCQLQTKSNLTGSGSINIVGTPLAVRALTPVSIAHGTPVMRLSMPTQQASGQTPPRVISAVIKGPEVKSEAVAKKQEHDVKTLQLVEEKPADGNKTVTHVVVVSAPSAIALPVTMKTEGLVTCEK

Row | Sequence | binding signal [1] | binding signal [2]
1 | CCAGTA | 0.902 | 0.671
2 | AGAGCA | 0.709 | 0.745
3 | TAGAGG | 0.939 | 0.789
4 | TACCAG | 1.22 | 0.847
5 | GTGTCA | 0.624 | 0.825
6 | GGGTAA | 0.784 | 0.836
7 | GTGTGT | 0.401 | 0.505
8 | GAGGGA | 0.51 | 0.484
9 | TGAGGG | 0.617 | 0.614
10 | ACGGGG | 0.606 | 0.642
11 | ACCGCG | 0.701 | 0.851
12 | AGGTCA | 0.605 | 0.698
13 | GGTGTC | 0.539 | 0.752
14 | AGGCCA | 0.577 | 0.639
15 | ACGAGG | 0.673 | 0.776
16 | GGGGAG | 0.329 | 0.38
17 | GCATGA | 0.724 | 0.77
18 | GTCATC | 0.684 | 0.848
19 | AGTGTG | 0.544 | 0.683
20 | CCAGAG | 0.952 | 0.59
21 | GGAGTA | 0.32 | 0.357
22 | AGACCG | 0.395 | 0.505
23 | GAGTTC | 0.661 | 0.771
24 | CGGAAT | 0.916 | 1.13

Row | Sequence | binding signal [1] | binding signal [2]
25 | AGTGGA | 0.698 | 0.755
26 | CGGGGA | 0.4 | 0.413
27 | CGGCGA | 0.634 | 0.68
28 | CCAGAC | 0.858 | 0.645
29 | GGTGGG | 0.502 | 0.625
30 | AAGTGA | 0.542 | 0.715
31 | GGGATA | 0.827 | 0.764
32 | CATGGA | 0.995 | 0.811
33 | CAGAGA | 0.819 | 0.579
34 | ATCAGG | 0.903 | 0.993
35 | AGGAGA | 0.239 | 0.205
36 | GCATGG | 0.714 | 0.823
37 | CCGGGA | 0.392 | 0.572
38 | CACGTG | 0.562 | 0.58
39 | GTGGGT | 0.37 | 0.453
40 | GGCAAA | 0.902 | 0.879
41 | ATCAGT | 0.821 | 0.828
42 | AGAACG | 0.752 | 0.451
43 | GAGTAC | 0.477 | 0.527
44 | GAGGAC | 0.5 | 0.59
45 | GATCCG | 0.886 | 1.02
46 | GGGTCT | 0.822 | 0.915
47 | GACGCG | 0.529 | 0.64
48 | CAGTGG | 0.448 | 0.437

Row | Sequence | binding signal [1] | binding signal [2]
49 | CGTGCT | 0.79 | 0.817
50 | GGCCAG | 0.428 | 0.432
51 | CGTCGT | 0.696 | 0.814
52 | AGGGGA | 0.567 | 0.594
53 | GGGAGG | 0.256 | 0.314
54 | AGGCAT | 0.773 | 0.82
55 | CAGTGT | 0.584 | 0.653
56 | GCGGGG | 0.379 | 0.429
57 | ATCGGT | 0.66 | 0.684
58 | CCACGG | 0.805 | 0.877
59 | GAGACT | 0.441 | 0.379
60 | TGTAGG | 0.682 | 0.792
61 | CCAAGG | 0.834 | 0.875
62 | GTGTGG | 0.513 | 0.609
63 | ACACAG | 0.808 | 0.951
64 | GAGAGT | 0.376 | 0.343
65 | GCAGAG | 0.551 | 0.636
66 | AGTTGG | 0.418 | 0.482
67 | AGAGTG | 0.621 | 0.61
68 | CAGCCG | 0.549 | 0.647
69 | CTGAGA | 0.912 | 0.744
70 | GCCGAG | 0.712 | 0.58
71 | AGTAGT | 0.827 | 0.957
72 | GTAGTG | 0.59 | 0.806

Full records from above. Values in the order: binding signal [1]	binding signal [2]
GACGCG in the list: 0.529	0.64
CTGAGA in the list: 0.912	0.744
TAGAGG in the list: 0.939	0.789
CGTCGT in the list: 0.696	0.814

(further entries)

Row | Sequence | binding signal [1] | binding signal [2]
73 | GTCGCG | 0.595 | 0.631
74 | CGGGAT | 0.698 | 0.684
75 | CGAGGG | 0.657 | 0.615
76 | GAGTGT | 0.491 | 0.501
77 | CCGCGA | 0.727 | 0.739
78 | CAGCCA | 0.709 | 0.787
79 | GCAGTT | 0.656 | 0.858
80 | AGTCAC | 0.619 | 0.792
81 | GGACAA | 0.709 | 0.809
82 | AGGCAA | 0.667 | 0.712
83 | CCCGGG | 0.66 | 0.772
84 | GCTGAG | 0.627 | 0.648
85 | AAGCGT | 0.847 | 0.886
86 | TCGTAG | 0.849 | 0.776
87 | CACAGT | 0.626 | 0.705
88 | CGAGCG | 0.824 | 0.862
89 | CAGGTC | 0.545 | 0.654
90 | CGGGTC | 0.512 | 0.745
91 | CCAGTT | 0.603 | 0.615
92 | GGCAGG | 0.473 | 0.606
93 | GCCGGC | 0.628 | 0.75
94 | CAAGGC | 0.715 | 0.838
95 | CTGAGT | 0.554 | 0.57
96 | TGTGTG | 0.636 | 0.773

Row | Sequence | binding signal [1] | binding signal [2]
97 | GCCAAA | 0.825 | 0.872
98 | GCATAT | 0.815 | 0.935
99 | GTCAGG | 0.433 | 0.548
100 | GACCAG | 0.64 | 0.605
101 | TGGAGG | 0.451 | 0.492
102 | GGTCGT | 0.475 | 0.581
103 | GCATTG | 0.667 | 0.796
104 | GTCGAT | 0.699 | 0.663
105 | AGTAAG | 0.828 | 0.78
106 | CGGCGG | 0.431 | 0.564
107 | GTCATA | 0.636 | 0.729
108 | CACGTC | 0.626 | 0.852
109 | AGGCGC | 0.511 | 0.555
110 | GCACGG | 0.651 | 0.821
111 | CAGAGC | 0.748 | 0.797
112 | CCAGGA | 0.519 | 0.866
113 | GGTACC | 0.619 | 0.834
114 | CGAGTC | 0.481 | 0.497
115 | GAGAGC | 0.33 | 0.364
116 | GAGGTT | 0.751 | 0.758
117 | GTGTCG | 0.474 | 0.618
118 | GAGCCC | 0.614 | 0.692
119 | AGACGA | 0.816 | 0.672
120 | GTCGTA | 0.525 | 0.575
